# Laboratory results as given in publication doi:10.1101/551317.
# Protein sequences, listed by entry. Tags and fused reporters are not part of them. Lines headed by an entry give the natural chain unless they say otherwise; changes in a name come on top.
# UniProt B6EUB3: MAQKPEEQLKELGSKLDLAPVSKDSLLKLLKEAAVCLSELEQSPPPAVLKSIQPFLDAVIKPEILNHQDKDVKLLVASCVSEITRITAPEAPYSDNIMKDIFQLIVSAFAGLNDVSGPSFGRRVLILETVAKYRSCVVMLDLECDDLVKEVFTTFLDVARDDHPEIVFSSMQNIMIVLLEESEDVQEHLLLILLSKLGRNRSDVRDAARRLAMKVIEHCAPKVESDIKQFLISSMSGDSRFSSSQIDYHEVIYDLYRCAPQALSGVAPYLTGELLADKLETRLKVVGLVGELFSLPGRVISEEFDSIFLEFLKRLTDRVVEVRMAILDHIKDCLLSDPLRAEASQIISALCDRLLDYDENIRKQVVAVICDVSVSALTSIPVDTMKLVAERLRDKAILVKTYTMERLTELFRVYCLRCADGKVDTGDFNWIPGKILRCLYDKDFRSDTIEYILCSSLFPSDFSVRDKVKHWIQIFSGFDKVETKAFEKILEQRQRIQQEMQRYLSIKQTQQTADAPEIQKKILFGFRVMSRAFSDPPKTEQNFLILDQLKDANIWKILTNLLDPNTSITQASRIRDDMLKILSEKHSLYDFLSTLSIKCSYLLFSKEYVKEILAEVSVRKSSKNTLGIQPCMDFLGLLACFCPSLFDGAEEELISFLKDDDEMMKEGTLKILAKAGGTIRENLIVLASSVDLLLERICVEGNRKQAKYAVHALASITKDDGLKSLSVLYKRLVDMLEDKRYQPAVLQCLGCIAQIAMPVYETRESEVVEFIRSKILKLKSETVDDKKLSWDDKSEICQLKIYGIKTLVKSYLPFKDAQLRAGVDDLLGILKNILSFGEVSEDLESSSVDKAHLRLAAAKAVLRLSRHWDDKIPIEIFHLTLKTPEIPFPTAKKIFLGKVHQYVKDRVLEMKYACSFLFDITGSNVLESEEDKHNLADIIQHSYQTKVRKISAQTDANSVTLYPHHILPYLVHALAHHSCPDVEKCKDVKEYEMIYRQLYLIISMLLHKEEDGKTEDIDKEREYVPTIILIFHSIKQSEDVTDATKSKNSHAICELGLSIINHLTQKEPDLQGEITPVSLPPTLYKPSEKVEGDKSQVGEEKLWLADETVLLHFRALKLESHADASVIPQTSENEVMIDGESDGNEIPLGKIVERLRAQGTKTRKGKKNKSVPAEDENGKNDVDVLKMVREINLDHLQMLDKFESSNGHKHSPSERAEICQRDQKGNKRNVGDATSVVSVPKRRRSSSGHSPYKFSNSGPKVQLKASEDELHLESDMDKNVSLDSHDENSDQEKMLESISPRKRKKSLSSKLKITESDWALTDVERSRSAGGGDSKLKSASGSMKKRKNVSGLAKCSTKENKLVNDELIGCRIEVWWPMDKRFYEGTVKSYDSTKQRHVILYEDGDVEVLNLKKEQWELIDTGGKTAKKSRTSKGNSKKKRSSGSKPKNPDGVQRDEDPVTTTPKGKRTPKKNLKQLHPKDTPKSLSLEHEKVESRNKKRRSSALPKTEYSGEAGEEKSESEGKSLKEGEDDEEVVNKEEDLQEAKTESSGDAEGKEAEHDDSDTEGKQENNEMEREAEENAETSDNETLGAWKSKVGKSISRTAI
# UniProt Q53KW9: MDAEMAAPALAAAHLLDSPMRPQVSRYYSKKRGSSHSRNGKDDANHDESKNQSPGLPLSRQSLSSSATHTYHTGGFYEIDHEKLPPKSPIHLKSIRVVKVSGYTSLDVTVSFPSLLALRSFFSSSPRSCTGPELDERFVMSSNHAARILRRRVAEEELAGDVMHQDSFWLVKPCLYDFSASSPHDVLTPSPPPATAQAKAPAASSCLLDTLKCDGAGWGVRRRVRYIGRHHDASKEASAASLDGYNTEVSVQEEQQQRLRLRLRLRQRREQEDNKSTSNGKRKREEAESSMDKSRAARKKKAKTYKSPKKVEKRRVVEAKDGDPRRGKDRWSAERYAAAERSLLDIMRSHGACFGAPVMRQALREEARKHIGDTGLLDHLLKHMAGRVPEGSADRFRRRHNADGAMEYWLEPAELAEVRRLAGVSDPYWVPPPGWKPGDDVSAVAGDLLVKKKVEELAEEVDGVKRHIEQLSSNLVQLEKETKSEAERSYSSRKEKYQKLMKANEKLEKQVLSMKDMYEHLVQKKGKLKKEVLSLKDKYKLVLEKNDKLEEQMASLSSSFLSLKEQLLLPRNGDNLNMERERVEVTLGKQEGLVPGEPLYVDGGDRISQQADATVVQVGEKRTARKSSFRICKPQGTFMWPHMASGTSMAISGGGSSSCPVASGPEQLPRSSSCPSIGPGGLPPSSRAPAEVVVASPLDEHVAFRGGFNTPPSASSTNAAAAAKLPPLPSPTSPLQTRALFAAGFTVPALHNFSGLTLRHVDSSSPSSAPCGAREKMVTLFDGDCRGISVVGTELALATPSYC
# Where two headings read alike, the source gives them in different places. Results are given in words; binding and its absence hold for the method and conditions named. For part of these data: Binding can be weak; no strength is given. For part of these data: Tags and fused reporters may be left off the sequences shown. For part of these data: Binding seen in cells or lysates may run through a third protein.
# B1: AMEIOTIC1 (AM1) from maize, yeast two-hybrid fusion (protein, UniProt C0RWW9 1-780)
# chain: MDVETVQAGPALAAHLQLQASPKPQVKKYYFKKKTSSSHSRNGKDDVNHDSTIQPRSPLSRQSLTFDAIPTYHAGAFYEIDHDKLPPKSPIHLKSIRVVKVSECTNLDITVKFPSLQALRSFFSSYPAPGTGPELDERFVMSSNHAARILRRRVTEEELEGEVQQDSFWLIKPRLYDFAAPQQVPSRTLCLPPPPAPPAATLGLTADSCLLTTLKCDGAGWGMRRRVRYIGRHRDEAPKEASVDGYDTESSVREVQQPPATQEVKRSERNCKRKREAEASSKDNNGDEGKKNNKVQGASKKISKKAKKRTVESKDGDPRHGKDRWSAERYAAAEKSLLNIMRSRDARFGAPVMRQVLREEARKHIGDTGLLDHLLKHMAGRVPEGSVHRFRRRHNADGAMEYWLEPAELAEVRKQAGVSDPYWVPPPGWKPGDDVSLVAGDILVKRQVEELTEEVNGVKRQMEQLLCKDDGDFGAERDYSSLKEKYQRAVRANEKLEKQVLCLKDMCENVVQMNGELKKEVSAFKEKYEHIADKNDKLEEQVTYLSSSFLSFKDQLVVALKLELAPSEAVPRTALFVASGEQMTGTVIQGGQDRAERKSSFRVCKPQGKFLLPSMASGMTIGRGASSTCPAAATPGPGIPRSTSFPSMPGLPRSSRGPVEVVAAASGLDEHVMFGAHFSTPPSASSTNDAAKLQLSLPSPRSPLQPQKLFDTVTAAASGFSPQKLMHFSGLTRRDVDTSSSSSGACGSGLLEGKRVLFDADAGGISAVGTELALATPSYC
# B2: SWI1, BiFC fusion (protein, UniProt Q9FGN8 1-639)
# chain: MSSTMFVKRNPIRETTAGKISSPSSPTLNVAVAHIRAGSYYEIDASILPQRSPENLKSIRVVMVSKITASDVSLRYPSMFSLRSHFDYSRMNRNKPMKKRSGGGLLPVFDESHVMASELAGDLLYRRIAPHELSMNRNSWGFWVSSSSRRNKFPRREVVSQPAYNTRLCRAASPEGKCSSELKSGGMIKWGRRLRVQYQSRHIDTRKNKEGEESSRVKDEVYKEEEMEKEEDDDDGNEIGGTKQEAKEITNGNRKRKLIESSTERLAQKAKVYDQKKETQIVVYKRKSERKFIDRWSVERYKLAERNMLKVMKEKNAVFGNSILRPELRSEARKLIGDTGLLDHLLKHMAGKVAPGGQDRFMRKHNADGAMEYWLESSDLIHIRKEAGVKDPYWTPPPGWKLGDNPSQDPVCAGEIRDIREELASLKRELKKLASKKEEEELVIMTTPNSCVTSQNDNLMTPAKEIYADLLKKKYKIEDQLVIIGETLRKMEEDMGWLKKTVDENYPKKPDSTETPLLLEDSPPIQTLEGEVKVVNKGNQITESPQNREKGRKHDQQERSPLSLISNTGFRICRPVGMFAWPQLPALAAATDTNASSPSHRQAYPSPFPVKPLAAKRPLGLTFPFTIIPEEAPKNLFNV
# B3: WAPL1, BiFC fusion (protein, UniProt F4I7C7 1-930)
# chain: MIIVKLTANRICCSLLQLRRSYEHFYIFVFLPEIPLFRFSHLKLFPKNLQIQRLVSAMMERTYGRRKPGIPRTLSDSLNDSVSQTEYLSSSSSPDIEPIDYSLLPFSSQESSSLWHSSSRSNFREDYPQNGGVVRRAKRVRNGAEAAAFTSTLLEAQEFGELMEHEDEVNFALDGLRKGHQLRIRRASLSSLLSICASQHQRRSLRAQGISQSIIDAILVLSLDDIPSNLAAATLFFALTADGQDEHFMESPKCIKFLIKLLKPVIVTSTEGKPRNIGFKLLSLLKDVDAARDPVKMDDPSSSDILSRVQELLVNCKEMRLNDSYITETTRPELSTKWVALLAMERACVSKISFDDTSGSVKKTGGNFKEKLRELGGLDAVLEVVMDCHAVMERWVEYDALSVQEKKDNLHKQSLMLLLKCLKIMENATFLSTDNQNHLLGFKKCLGSHDSRMSFTELTISVIKMLSGLHLRGGFSSPNTNNVNSHYSNGGNHDSVLEANRKVTNEVVTISSDTYSTVGSISTRNGSVSQRSQSIIHLDFSPTSMSGSQSSVSGNEPTTSKTRVGSTISGSFAGRLASLGSDIARTTLRTTQAGEPICKKFGEFAPPEESEDPFAFDLEDYKPSKWAVVSVNQKKSRAQKKKGCYKQSKDESLYQLFSSQEESSNHRLNSQEESSNRDCSTSLQPSHCTNDIDEECLCLLFDCLLTAVKVLMNLTNDNVVGCRQVGGCRGLESMAELIARHFPSFTRSQLFSEMEKTGSSHQKKDKYLTDQELDFLVAILGLLVNLVERDGVNRSRLASASVPITKPEELQESEQEMIPLLCSIFLTNQGSAETKEETTTFTLDDEEAVLEGEKEAEKMIVEAYSALLLAFLSTESRSIRNSIKDYLPKRNLAILVPVLERFVAFHMTLNMIPPETHKAVMGVIESCKSP
# Assays:
# [1] = molecular target: Arabidopsis PDS5A, yeast two-hybrid fusion (limits not stated) (Arabidopsis thaliana) (UniProt B6EUB3); test: two-hybrid
# [2] = molecular target: Arabidopsis PDS5A, yeast two-hybrid fusion (limits not stated) (Arabidopsis thaliana) (UniProt B6EUB3); test: two-hybrid; remark: listed apart in the source
# [3] = molecular target: PDS5A, BiFC fusion (Arabidopsis thaliana) (UniProt B6EUB3); test: split reporter
# [4] = molecular target: PDS5A, BiFC fusion (Arabidopsis thaliana) (UniProt B6EUB3); test: split reporter; remark: listed apart in the source
# [5] = molecular target: PDS5A, BiFC fusion (Arabidopsis thaliana) (UniProt B6EUB3); test: split reporter; remark: listed apart in the source
# [6] = molecular target: C-terminus of PDS5A, BiFC fusion (Arabidopsis thaliana); test: split reporter
# [7] = molecular target: N-terminus of PDS5A, BiFC fusion (Arabidopsis thaliana); test: split reporter
molecule,measurement,setting,value
"AMEIOTIC1 (AM1) from rice, yeast two-hybrid fusion (from UniProt Q53KW9)",binding,[1],binds
B1,binding,[2],binds
B2,binding,[3],binds
same,binding,[4],binds
same,binding,[5],binds
B3,binding,[3],binds
same,binding,[6],no binding
same,binding,[7],binds
same,binding,[5],binds
